Results from the supplement of paper PMC10849652.
The other results are listed elsewhere or left out. Residues, ends and D or L forms follow the SMILES beside them. *: point of attachment. Cbz = O=C(OCc1ccccc1)*

Chains of the proteins cited; added tags and fusions are not shown. Lines headed by an entry give the natural chain unless they say otherwise; changes in a name come on top.
UniProt Q2NL82: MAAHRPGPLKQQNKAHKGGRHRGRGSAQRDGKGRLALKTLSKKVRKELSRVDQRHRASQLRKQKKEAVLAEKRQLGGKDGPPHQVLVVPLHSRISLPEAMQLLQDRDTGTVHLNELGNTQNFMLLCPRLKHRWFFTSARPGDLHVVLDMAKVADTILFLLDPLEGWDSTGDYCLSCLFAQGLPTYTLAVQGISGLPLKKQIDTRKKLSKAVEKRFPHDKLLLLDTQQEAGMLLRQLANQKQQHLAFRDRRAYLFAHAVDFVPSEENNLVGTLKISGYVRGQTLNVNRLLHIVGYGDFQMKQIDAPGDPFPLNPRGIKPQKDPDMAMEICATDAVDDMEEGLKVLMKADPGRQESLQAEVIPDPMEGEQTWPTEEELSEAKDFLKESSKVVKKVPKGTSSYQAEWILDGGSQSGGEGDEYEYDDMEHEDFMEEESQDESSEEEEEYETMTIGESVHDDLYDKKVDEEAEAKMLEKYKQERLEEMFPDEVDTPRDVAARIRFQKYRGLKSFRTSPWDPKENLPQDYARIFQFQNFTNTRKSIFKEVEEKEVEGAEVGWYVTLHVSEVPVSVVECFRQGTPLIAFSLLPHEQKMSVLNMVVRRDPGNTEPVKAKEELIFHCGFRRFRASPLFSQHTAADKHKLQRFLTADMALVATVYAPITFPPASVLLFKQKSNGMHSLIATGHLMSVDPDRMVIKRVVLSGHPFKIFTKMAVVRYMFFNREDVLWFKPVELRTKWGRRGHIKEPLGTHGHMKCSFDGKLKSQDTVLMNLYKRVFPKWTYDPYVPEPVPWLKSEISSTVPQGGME
UniProt Q5T6F2: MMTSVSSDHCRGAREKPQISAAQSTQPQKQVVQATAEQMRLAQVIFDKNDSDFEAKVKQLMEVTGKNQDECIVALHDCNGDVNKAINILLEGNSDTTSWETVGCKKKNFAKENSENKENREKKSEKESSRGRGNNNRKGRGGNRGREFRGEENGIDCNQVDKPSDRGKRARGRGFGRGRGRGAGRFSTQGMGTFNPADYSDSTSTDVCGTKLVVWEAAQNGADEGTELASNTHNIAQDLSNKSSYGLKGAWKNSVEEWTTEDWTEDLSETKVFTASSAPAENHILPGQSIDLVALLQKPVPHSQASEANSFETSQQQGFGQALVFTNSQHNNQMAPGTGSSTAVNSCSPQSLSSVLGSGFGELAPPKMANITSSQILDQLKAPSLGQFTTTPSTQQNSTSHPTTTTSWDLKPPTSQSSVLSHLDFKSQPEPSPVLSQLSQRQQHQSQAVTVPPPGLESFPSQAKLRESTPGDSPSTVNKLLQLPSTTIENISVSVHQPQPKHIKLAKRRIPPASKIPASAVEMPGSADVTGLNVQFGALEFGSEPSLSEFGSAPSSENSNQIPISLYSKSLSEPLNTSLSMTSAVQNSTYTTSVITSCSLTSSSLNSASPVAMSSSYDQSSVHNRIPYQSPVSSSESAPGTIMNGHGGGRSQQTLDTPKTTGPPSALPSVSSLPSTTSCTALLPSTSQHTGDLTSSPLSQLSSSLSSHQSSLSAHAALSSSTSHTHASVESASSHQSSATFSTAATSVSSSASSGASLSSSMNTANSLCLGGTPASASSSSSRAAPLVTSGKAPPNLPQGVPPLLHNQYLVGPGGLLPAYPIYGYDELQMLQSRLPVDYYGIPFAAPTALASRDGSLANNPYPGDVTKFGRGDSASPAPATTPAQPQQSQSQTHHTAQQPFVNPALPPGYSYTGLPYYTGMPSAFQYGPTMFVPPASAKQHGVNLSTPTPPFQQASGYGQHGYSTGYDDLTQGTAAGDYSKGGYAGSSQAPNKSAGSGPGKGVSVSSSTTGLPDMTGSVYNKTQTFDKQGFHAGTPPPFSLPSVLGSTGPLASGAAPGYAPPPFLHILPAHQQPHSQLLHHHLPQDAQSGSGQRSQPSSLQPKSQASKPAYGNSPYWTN
UniProt Q96AE7: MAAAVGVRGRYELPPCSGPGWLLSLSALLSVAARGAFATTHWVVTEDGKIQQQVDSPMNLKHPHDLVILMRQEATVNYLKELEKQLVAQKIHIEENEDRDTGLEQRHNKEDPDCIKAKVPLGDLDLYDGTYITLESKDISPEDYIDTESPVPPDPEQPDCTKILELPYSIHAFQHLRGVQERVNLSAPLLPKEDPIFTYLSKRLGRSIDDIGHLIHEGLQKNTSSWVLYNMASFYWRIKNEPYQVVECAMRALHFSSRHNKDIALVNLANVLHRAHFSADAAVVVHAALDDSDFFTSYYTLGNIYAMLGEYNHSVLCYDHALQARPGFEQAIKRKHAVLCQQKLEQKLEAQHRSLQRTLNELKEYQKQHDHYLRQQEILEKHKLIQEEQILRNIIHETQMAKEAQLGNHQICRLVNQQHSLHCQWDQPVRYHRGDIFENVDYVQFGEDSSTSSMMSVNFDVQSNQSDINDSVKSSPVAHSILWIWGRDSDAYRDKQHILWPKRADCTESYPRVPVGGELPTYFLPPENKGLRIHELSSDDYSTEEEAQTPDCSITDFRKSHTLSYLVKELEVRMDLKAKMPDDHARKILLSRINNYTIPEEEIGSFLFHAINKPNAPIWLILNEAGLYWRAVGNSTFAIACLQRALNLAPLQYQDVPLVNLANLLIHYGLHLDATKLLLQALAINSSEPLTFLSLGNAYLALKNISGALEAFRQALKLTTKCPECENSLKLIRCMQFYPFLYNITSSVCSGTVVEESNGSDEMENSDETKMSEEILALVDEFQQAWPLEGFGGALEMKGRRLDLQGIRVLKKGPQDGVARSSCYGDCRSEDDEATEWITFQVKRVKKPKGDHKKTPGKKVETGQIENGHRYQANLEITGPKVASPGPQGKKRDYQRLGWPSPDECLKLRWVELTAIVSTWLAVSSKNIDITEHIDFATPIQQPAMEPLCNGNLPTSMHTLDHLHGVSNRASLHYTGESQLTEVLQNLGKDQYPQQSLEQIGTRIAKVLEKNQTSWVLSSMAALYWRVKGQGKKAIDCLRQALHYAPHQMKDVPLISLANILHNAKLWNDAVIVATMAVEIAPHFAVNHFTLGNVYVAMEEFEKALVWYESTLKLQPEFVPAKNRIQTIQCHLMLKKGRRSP
UniProt Q15631: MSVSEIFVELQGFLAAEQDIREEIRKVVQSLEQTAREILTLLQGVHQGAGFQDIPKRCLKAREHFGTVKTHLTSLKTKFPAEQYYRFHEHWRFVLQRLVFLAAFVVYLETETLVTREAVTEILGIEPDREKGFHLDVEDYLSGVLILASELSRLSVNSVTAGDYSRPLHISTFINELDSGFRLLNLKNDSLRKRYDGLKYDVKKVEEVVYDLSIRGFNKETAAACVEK
UniProt Q8TBC4: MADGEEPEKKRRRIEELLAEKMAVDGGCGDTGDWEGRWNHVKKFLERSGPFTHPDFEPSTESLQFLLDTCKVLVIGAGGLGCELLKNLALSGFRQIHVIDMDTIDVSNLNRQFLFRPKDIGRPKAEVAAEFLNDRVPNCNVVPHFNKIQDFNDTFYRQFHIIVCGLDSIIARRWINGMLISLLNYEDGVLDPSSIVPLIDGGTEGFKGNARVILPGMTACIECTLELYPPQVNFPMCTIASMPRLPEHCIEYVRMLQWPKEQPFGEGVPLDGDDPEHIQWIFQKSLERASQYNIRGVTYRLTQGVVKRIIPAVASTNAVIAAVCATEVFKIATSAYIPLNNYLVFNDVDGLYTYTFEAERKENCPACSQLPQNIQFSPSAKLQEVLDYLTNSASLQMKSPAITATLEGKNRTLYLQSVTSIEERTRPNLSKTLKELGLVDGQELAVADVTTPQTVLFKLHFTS
UniProt P61088: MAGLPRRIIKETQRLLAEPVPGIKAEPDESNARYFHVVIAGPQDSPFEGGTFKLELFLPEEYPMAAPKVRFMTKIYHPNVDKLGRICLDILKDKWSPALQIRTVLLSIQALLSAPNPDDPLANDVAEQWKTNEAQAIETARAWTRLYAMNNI
UniProt Q9Y5U2: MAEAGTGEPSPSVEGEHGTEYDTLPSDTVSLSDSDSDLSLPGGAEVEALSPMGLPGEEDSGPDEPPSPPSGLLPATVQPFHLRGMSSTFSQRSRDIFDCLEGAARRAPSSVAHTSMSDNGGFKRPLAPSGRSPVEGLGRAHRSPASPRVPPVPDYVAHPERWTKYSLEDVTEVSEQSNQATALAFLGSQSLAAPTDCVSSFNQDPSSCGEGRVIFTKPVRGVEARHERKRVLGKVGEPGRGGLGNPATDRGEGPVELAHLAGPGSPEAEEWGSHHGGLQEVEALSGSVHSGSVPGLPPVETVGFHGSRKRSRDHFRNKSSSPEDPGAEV
UniProt O15042: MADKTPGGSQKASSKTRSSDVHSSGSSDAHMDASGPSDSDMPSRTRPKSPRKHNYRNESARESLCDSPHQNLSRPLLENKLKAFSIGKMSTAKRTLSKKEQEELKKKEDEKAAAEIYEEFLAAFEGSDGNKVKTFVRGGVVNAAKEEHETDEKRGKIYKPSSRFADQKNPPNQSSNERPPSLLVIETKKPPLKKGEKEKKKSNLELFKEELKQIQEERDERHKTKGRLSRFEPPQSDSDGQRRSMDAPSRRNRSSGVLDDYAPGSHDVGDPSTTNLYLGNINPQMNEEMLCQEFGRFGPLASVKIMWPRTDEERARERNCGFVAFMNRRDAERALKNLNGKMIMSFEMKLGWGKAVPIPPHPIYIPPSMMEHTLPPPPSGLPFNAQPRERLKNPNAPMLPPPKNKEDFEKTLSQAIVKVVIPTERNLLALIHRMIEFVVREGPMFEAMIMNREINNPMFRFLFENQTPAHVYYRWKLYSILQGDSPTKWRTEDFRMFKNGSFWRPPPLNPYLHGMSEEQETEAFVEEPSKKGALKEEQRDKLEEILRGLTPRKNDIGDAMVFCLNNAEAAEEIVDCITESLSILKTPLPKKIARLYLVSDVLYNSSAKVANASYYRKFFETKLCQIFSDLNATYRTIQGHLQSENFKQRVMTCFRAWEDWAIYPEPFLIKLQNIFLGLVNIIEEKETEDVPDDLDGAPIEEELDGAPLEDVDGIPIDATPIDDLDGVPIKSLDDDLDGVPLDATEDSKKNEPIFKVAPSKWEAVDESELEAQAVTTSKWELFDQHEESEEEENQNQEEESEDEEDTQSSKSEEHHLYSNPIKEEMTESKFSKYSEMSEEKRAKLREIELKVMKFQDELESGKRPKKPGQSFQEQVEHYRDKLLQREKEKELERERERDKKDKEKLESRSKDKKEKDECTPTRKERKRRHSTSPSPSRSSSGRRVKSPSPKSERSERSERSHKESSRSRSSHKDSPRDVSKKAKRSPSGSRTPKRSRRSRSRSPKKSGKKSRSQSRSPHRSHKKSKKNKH
UniProt Q8NBM4: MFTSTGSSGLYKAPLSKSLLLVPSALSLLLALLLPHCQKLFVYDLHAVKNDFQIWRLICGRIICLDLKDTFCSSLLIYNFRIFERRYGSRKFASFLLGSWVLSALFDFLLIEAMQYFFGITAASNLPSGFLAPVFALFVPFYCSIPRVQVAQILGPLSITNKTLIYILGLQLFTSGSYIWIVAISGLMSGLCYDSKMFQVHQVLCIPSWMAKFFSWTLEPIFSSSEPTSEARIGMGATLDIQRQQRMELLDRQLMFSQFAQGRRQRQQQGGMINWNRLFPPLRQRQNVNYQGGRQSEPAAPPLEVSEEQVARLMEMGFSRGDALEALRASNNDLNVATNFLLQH
UniProt Q13885, whole entry, looked up: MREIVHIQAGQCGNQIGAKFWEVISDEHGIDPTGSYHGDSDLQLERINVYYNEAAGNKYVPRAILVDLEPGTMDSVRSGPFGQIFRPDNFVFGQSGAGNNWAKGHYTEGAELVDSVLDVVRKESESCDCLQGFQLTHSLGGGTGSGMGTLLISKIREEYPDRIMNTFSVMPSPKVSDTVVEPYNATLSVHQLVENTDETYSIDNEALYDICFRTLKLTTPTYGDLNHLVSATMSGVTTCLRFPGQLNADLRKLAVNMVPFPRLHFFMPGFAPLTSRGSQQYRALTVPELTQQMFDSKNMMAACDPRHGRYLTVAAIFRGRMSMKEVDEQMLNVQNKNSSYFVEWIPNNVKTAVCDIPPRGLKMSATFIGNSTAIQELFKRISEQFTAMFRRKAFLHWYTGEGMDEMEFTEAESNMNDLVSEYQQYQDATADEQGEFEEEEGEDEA
UniProt Q3KQV9: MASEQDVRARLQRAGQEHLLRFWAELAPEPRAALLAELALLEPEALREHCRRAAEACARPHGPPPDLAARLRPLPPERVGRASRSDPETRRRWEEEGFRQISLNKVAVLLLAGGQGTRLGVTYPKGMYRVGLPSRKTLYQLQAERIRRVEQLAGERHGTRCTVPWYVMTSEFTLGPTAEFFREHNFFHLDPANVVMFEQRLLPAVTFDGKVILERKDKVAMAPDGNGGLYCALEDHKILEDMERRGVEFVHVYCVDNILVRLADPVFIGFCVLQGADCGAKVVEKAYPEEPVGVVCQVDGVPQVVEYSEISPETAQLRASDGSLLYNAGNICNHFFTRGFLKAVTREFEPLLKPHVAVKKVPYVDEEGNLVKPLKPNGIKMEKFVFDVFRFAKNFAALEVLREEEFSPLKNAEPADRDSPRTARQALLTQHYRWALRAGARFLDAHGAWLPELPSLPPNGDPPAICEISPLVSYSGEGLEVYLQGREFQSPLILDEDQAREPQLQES

Tests used:
Test in all cases: log2 fold change, soluble protein after heating vs DMSO (PISA); higher = thermal stabilisation; K562 cells, 10 uM, 30 min; active = over 0.2 and 3.5 SD of the protein, either way, in both replicates (recomputed)
[1] = compound: C#Cc1cccc(Nc2ncnc3cc(OCCOC)c(OCCOC)cc23)c1 [erlotinib]
In short: (§1)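 K562 cells at 2×10^6 cells/mL were exposed to 10 μM compound for 30 min, then aliquots were heated for 3 min across 48°C-58°C, pooled, and extracted in PBS containing 0.5% NP-40 at 4°C. The supernatant after 21,000xg for 90 min was taken as soluble protein and measured by TMTpro 16plex LC-MS/MS with channel sums equalised. Thermal stability is reported relative to control samples, with values from duplicates. Fold changes are given on a log2 scale.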

[2] = compound: C/C(=N\NC(=O)C1=CC(=CC=C1)S(=O)(=O)N2CCOCC2)/C3=C(C=CC(=C3)Cl)O
In short: as §1

[3] = compound: C1=CC(=C(C=C1Cl)C2=NC3=NC=CN=C3C(=N2)NC4=CC=NC=C4)F
In short: as §1

[4] = compound: C1=CC(=CC=C1C2=NC3=C(N2)C=C(C=C3)C(=O)N)OC4=CC=C(C=C4)Cl
In short: as §1

[5] = compound: C1=CC2=C(C=CC(=C2)/C=C\3/C(=O)NC(=NCC4=CC=CS4)S3)N=C1
In short: as §1

[6] = compound: C1=CC2=NC=CN=C2C=C1/C=C/3\C(=O)NC(=O)S3
In short: as §1

[7] = compound: C1=CC=C(C=C1)C2=NC(=C(N2)C3=CC=NC=C3)C4=CC(=C(C=C4)Cl)O
In short: as §1

[8] = compound: C1=CC=C2C(=C1)C3=NNC4=CC=CC(=C43)C2=O
In short: as §1

[9] = compound: C1CCN(C1)C(=O)NC2=CC=CC(=C2)NC3=NC=C(C(=N3)NCCC4=CN=CN4)Br
In short: as §1

[10] = compound: C1CN(CCC1(CC2=CC=C(C=C2)Cl)N)C3=NC=NC4=C3C=CN4
In short: as §1

[11] = compound: C1COCCN1CCN2C3=CC=CC=C3N=C2NC(=O)C4=CC(=CC=C4)[N+](=O)[O-] [IRAK-1-4 Inhibitor I]
In short: as §1

[12] = compound: C=CC(=O)N1CCC[C@@H](n2nc(-c3ccc(Oc4ccccc4)cc3)c3c(N)ncnc32)C1 [ibrutinib]
In short: as §1

[13] = compound: CC(=O)c1cnc2ccc(-c3cc(Cl)c(O)c(Cl)c3)nc2c1N[C@H]1CC[C@H](CN(C)C)CC1
In short: as §1

[14] = compound: CC(C)(C)Cn1c(N)nc2ccc(-c3[nH]c(C(C)(C)C)nc3-c3ccc(F)cc3)nc21 [ralimetinib]
In short: as §1

[15] = compound: CC(C)(O)CC(=O)NCCn1ccc2ncnc(Nc3ccc(Oc4cccc(C(F)(F)F)c4)c(Cl)c3)c21
In short: as §1

[16] = compound: CC(C)C1=C2N=C(C=C(N2N=C1)NCC3=CC=CC=C3)NCCCCCCN
In short: as §1

[17] = compound: CC(C)C[C@@H](C=O)NC(=O)[C@H](CC(C)C)NC(=O)[C@H](CC(C)C)NC(=O)OCc1ccccc1
In short: as §1

[18] = compound: CC(C)N(C[C@H]1O[C@@H](n2cnc3c(N)ncnc32)[C@H](O)[C@@H]1O)[C@H]1C[C@@H](CCc2nc3cc(C(C)(C)C)ccc3[nH]2)C1 [pinometostat]
In short: as §1

[19] = compound: CC1=C(C(CC(=O)N1)C2=CC=C(C=C2)C(F)(F)F)C(=O)NC3=C(C=C4C(=C3)C=NN4)F
In short: as §1

[20] = compound: CC1=C(C2=C(C=C1)C(=O)C3=CC=CC=C3N2CCCN)C
In short: as §1

Measured: log2 fold change

TSR1 (UniProt Q2NL82)
inactive: [1] -0.023 | [2] -0.017 | [3] -0.169 | [4] 0.032 | [5] -0.023 | [6] -0.026 | [7] 0.038 | [8] 0.085 | [9] 0.024 | [10] -0.181 | [11] -0.152 | [12] 0.028 | [13] -0.075 | [14] 0.143 | [15] 0 | [16] -0.112 | [17] 0.103 | [18] 0.192 | [19] -0.05 | [20] -0.131

TUFM (UniProt P49411)
inactive: [1] 0.04 | [2] 0.088 | [3] 0.08 | [4] -0.002 | [5] 0.017 | [6] -0.016 | [7] 0.065 | [8] 0.097 | [9] 0.013 | [10] -0.118 | [11] 0.091 | [12] 0.035 | [13] -0.139 | [14] -0.052 | [15] -0.139 | [16] -0.046 | [17] 0.05 | [18] -0.023 | [19] -0.021 | [20] 0.147

UBAP2 (UniProt Q5T6F2)
inactive: [1] 0.038 | [2] -0.03 | [3] 0.017 | [4] -0.011 | [5] -0.049 | [6] 0.002 | [7] -0.049 | [8] -0.021 | [9] 0.021 | [10] 0.019 | [11] 0.036 | [12] 0.027 | [13] -0.001 | [14] -0.044 | [15] 0.042 | [16] 0.016 | [17] 0.031 | [18] -0.013 | [19] -0.007 | [20] -0.042

TTC17 (UniProt Q96AE7)
inactive: [1] -0.055 | [2] -0.041 | [3] -0.004 | [4] 0.031 | [5] -0.018 | [6] 0.034 | [7] -0.068 | [8] 0.002 | [9] 0.054 | [10] -0.034 | [11] -0.005 | [12] -0.008 | [13] 0.092 | [14] -0.157 | [15] 0.161 | [16] 0.016 | [17] -0.061 | [18] -0.049 | [19] 0.053 | [20] -0.056

TSN (UniProt Q15631)
inactive: [1] -0.004 | [2] -0.009 | [3] 0.042 | [4] 0.021 | [5] 0.03 | [6] 0.01 | [7] 0.074 | [8] 0.031 | [9] -0.057 | [10] 0.052 | [11] 0.025 | [12] 0.004 | [13] 0.01 | [14] 0.023 | [15] -0.009 | [16] 0.059 | [17] -0.1 | [18] -0.074 | [19] 0.024 | [20] 0.034

UBA3 (UniProt Q8TBC4)
inactive: [1] 0.046 | [2] 0.12 | [3] 0.098 | [4] 0 | [5] 0.049 | [6] 0.022 | [7] 0.043 | [8] 0.019 | [9] -0.009 | [10] -0.033 | [11] -0.014 | [12] 0.008 | [13] -0.033 | [14] -0.015 | [15] -0.118 | [16] -0.145 | [17] -0.028 | [18] -0.009 | [19] 0.051 | [20] 0.007

TUBB4B (UniProt P68371)
inactive: [1] -0.002 | [2] 0.098 | [3] 0.019 | [4] 0.052 | [5] -0.004 | [6] -0.053 | [7] 0.03 | [8] 0.031 | [9] -0.013 | [10] 0.06 | [11] 0.077 | [12] 0.045 | [13] 0.002 | [14] -0.035 | [15] -0.062 | [16] 0.007 | [17] -0.011 | [18] -0.025 | [19] -0.003 | [20] 0.01

UBE2N (UniProt P61088)
inactive: [1] 0.064 | [2] 0.052 | [3] 0.113 | [4] -0.058 | [5] 0.064 | [6] 0.059 | [7] 0.04 | [8] 0.018 | [9] -0.006 | [10] 0.004 | [11] 0.003 | [12] -0.014 | [13] 0.005 | [14] -0.047 | [15] -0.035 | [16] -0.024 | [17] -0.103 | [18] -0.056 | [19] 0.112 | [20] 0.102

TSSC4 (UniProt Q9Y5U2)
inactive: [1] 0.175 | [2] -0.138 | [3] -0.031 | [4] -0.004 | [5] 0.021 | [6] 0.008 | [7] -0.101 | [8] -0.065 | [9] 0.013 | [10] 0.044 | [11] -0.025 | [12] 0.013 | [13] 0.053 | [14] 0.201 | [15] 0.031 | [16] 0.193 | [17] 0.147 | [18] 0.022 | [19] 0.157 | [20] -0.039

U2SURP (UniProt O15042)
inactive: [1] 0.072 | [2] 0.106 | [3] -0.116 | [4] -0.005 | [5] -0.012 | [6] 0.155 | [7] 0.05 | [8] -0.08 | [9] -0.105 | [10] -0.128 | [11] -0.131 | [12] -0.114 | [13] -0.191 | [14] 0.086 | [15] -0.018 | [16] -0.194 | [17] 0.094 | [18] 0.083 | [19] -0.049 | [20] -0.015

TSEN54 (UniProt Q7Z6J9)
inactive: [1] 0.182 | [2] 0.033 | [3] 0.015 | [4] 0.11 | [5] 0.017 | [6] -0.04 | [7] 0.037 | [8] -0.029 | [9] -0.11 | [10] 0.082 | [11] 0.007 | [12] -0.002 | [13] -0.122 | [14] -0.153 | [15] 0.004 | [16] -0.244 | [17] 0.046 | [18] 0.043 | [19] 0.104 | [20] 0.08

UBAC2 (UniProt Q8NBM4)
inactive: [1] 0.011 | [2] 0.041 | [3] -0.048 | [4] 0.009 | [5] 0.065 | [6] 0.14 | [7] 0.075 | [8] -0.017 | [9] -0.092 | [10] 0.046 | [11] 0.057 | [12] -0.019 | [13] -0.056 | [14] 0.101 | [15] -0.043 | [16] -0.273 | [17] -0.007 | [18] 0 | [19] -0.436 | [20] -0.039

TUBB2A (UniProt Q13885)
inactive: [1] 0.031 | [2] -0.008 | [3] 0.086 | [4] 0 | [5] -0.007 | [6] -0.008 | [7] -0.004 | [8] -0.007 | [9] -0.006 | [10] 0.051 | [11] 0.049 | [12] 0.024 | [13] 0.017 | [14] -0.022 | [15] -0.054 | [16] 0.038 | [17] 0.011 | [18] -0.02 | [19] 0.054 | [20] 0

TTLL12 (UniProt Q14166)
inactive: [1] -0.072 | [2] -0.022 | [3] -0.203 | [4] 0.007 | [5] 0.014 | [6] -0.109 | [7] -0.101 | [8] 0.032 | [9] -0.104 | [10] -0.247 | [11] -0.174 | [12] 0.135 | [13] -0.004 | [14] 0.26 | [15] 0 | [16] -0.392 | [17] 0.269 | [18] 0.565 | [19] 0.01 | [20] -0.031

UAP1L1 (UniProt Q3KQV9)
inactive: [1] 0.01 | [2] -0.021 | [3] 0.057 | [4] 0.021 | [5] 0.023 | [6] 0.005 | [7] 0.032 | [8] -0.01 | [9] 0.014 | [10] 0.028 | [11] 0.05 | [12] -0.008 | [13] -0.005 | [14] -0.083 | [15] -0.032 | [16] -0.002 | [17] -0.023 | [18] 0.019 | [19] -0.005 | [20] 0.128

Reprinted at random: 2 entries already listed.
TTLL12 (UniProt Q14166)
inactive: [1] -0.072 | [2] -0.022 | [3] -0.203 | [4] 0.007 | [5] 0.014 | [6] -0.109 | [7] -0.101 | [8] 0.032 | [9] -0.104 | [10] -0.247 | [11] -0.174 | [12] 0.135 | [13] -0.004 | [14] 0.26 | [15] 0 | [16] -0.392 | [17] 0.269 | [18] 0.565 | [19] 0.01 | [20] -0.031

TSEN54 (UniProt Q7Z6J9)
inactive: [1] 0.182 | [2] 0.033 | [3] 0.015 | [4] 0.11 | [5] 0.017 | [6] -0.04 | [7] 0.037 | [8] -0.029 | [9] -0.11 | [10] 0.082 | [11] 0.007 | [12] -0.002 | [13] -0.122 | [14] -0.153 | [15] 0.004 | [16] -0.244 | [17] 0.046 | [18] 0.043 | [19] 0.104 | [20] 0.08

Following part:

UBE2G1 (UniProt P62253)
inactive: [1] 0.031 | [2] 0.015 | [3] 0.06 | [4] -0.003 | [5] -0.005 | [6] 0.033 | [7] -0.046 | [8] 0.023 | [9] 0.015 | [10] 0.017 | [11] 0.048 | [12] -0.027 | [13] 0.023 | [14] -0.062 | [15] 0 | [16] -0.081 | [17] -0.049 | [18] 0.007 | [19] 0.008 | [20] -0.023
